Results reported in patent JP2016106147A.
These are yes or no findings as the source states them, for the method shown. Some results given as binding are weak or reduced against the parent protein; the word gives no strength.

Protein sequences, listed by entry. Tags and fused reporters are not part of them. Residues count along the entry.
UniProt P50282, residues 20-708: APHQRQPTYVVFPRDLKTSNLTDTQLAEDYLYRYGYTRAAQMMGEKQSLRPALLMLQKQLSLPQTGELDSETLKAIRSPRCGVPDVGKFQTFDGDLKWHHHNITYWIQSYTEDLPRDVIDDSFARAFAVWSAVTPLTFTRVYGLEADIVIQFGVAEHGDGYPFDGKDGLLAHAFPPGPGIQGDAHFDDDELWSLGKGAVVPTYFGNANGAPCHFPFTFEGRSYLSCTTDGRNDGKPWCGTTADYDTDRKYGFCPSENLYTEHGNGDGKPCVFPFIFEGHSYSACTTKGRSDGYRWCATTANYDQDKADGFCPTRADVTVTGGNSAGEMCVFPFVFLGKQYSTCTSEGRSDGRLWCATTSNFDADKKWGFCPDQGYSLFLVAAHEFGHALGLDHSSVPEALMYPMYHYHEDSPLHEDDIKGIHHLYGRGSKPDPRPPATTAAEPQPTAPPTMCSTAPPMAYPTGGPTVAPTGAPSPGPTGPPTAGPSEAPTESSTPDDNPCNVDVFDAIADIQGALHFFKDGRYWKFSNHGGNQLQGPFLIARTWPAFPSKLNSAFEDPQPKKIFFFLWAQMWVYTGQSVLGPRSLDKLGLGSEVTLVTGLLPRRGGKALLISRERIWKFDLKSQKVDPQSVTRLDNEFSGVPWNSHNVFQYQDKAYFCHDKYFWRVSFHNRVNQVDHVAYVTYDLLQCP

Tests used:
[1] = molecular target: カニクイザルMMP9 (cynomolgus monkey); experiment: binding test (Table 2, not shown)
ラットMMP9 (rat) = ラットMMP9 (rat) (UniProt P50282); experiment: binding test (Table 2, not shown)

binding [1]: binds
binding (ラットMMP9 (rat)): binds
B1: マウスモノクローナル抗MMP9抗体(AB0041) (antibody, mouse IgG2b, V domains shown)
VH: QVQLKESGPGLVAPSQSLSITCTVSGFSLLSYGVHWVRQPPGKGLEWLGVIWTGGTTNYNSALMSRLSISKDDSKSQVFLKMNSLQTDDTAIYYCARYYYGMDYWGQGTSVTVSS
VL: DIVMTQSHKFMSTSVGDRVSITCKASQDVRNTVAWYQQKTGQSPKLLIYSSSYRNTGVPDRFTGSGSGTDFTFTISSVQAEDLAVYFCQQHYITPYTFGGGTKLEIK
